Results published in the supplement of paper PMC10849652.
The list shows a part of the results.

By UniProt entry, the sequences of proteins in these tests, tags left out. Where a name states a change or a piece, a line headed by the entry shows the natural chain unless it says otherwise.
UniProt Q9Y6X9: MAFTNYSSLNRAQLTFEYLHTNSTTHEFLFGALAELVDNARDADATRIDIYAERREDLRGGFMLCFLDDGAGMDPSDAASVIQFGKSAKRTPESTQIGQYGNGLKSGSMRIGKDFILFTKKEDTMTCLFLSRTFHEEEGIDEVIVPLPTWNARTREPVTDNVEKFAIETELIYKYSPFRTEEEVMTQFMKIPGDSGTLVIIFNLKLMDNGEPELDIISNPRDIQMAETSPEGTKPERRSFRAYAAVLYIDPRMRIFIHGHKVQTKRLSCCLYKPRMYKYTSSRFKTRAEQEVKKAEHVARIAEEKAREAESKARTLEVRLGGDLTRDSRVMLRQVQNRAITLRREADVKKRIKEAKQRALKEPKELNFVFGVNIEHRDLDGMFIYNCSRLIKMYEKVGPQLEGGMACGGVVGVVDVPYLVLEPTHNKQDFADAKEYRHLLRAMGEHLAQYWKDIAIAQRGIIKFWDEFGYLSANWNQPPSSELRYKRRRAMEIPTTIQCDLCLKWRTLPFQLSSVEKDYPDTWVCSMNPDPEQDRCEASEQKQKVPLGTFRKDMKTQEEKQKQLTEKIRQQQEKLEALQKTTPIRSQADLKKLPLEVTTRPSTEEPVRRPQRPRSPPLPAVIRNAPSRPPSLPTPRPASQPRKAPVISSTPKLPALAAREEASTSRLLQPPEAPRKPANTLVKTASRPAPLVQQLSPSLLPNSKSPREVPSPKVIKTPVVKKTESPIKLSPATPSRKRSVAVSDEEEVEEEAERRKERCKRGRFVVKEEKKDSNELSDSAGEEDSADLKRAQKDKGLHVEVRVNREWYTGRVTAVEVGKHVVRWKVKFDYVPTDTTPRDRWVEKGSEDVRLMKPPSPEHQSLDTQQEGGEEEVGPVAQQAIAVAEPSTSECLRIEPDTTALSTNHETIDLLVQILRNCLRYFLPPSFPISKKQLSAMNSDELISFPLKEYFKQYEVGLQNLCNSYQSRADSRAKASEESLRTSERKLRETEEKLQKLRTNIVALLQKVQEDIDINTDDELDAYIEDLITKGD
UniProt P25325: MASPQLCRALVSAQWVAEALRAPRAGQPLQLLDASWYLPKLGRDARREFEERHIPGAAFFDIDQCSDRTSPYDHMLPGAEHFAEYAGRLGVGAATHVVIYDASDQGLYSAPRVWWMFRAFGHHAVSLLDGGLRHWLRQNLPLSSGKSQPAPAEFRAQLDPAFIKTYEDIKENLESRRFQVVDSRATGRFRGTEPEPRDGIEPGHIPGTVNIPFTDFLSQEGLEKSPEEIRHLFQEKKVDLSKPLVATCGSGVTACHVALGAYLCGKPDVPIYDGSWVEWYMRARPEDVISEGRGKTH
UniProt Q7L1V2: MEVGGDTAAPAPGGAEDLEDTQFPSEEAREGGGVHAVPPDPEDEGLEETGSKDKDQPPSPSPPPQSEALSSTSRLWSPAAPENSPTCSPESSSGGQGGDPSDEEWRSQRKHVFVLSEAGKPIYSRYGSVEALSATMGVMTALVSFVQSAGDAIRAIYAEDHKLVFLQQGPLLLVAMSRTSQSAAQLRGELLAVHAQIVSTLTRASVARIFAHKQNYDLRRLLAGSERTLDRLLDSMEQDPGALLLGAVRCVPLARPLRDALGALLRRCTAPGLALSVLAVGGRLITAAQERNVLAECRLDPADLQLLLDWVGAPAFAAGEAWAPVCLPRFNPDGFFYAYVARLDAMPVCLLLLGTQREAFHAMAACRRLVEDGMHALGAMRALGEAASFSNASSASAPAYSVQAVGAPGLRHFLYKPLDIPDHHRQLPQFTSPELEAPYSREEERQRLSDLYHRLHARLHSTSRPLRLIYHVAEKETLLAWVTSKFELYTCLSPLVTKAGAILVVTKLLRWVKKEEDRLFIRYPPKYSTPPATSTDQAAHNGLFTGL
UniProt Q14165: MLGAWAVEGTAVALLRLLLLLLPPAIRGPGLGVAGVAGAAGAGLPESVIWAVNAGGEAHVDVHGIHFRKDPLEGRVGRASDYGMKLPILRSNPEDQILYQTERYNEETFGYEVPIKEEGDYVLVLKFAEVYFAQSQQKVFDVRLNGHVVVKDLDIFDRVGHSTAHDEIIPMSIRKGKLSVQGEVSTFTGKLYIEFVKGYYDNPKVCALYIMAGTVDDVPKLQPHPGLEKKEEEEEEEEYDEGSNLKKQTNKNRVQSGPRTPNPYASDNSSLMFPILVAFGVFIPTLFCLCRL
UniProt Q9NZB8: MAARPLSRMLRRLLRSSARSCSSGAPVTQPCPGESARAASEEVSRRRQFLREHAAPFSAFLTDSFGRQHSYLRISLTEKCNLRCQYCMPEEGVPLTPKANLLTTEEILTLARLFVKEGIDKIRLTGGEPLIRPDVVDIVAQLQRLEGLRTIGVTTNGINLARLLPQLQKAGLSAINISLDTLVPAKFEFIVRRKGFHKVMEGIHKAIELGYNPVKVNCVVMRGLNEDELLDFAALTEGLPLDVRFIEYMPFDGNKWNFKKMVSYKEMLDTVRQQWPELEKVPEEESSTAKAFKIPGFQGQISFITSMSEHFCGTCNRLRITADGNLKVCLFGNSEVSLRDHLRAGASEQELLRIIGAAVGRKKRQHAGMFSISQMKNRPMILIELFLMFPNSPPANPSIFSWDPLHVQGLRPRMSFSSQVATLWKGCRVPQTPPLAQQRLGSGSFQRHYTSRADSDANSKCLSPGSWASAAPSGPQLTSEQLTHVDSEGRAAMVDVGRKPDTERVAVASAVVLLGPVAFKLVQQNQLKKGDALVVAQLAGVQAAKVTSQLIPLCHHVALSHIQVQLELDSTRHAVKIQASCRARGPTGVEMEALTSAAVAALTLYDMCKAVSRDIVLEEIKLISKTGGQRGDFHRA
UniProt Q8N108: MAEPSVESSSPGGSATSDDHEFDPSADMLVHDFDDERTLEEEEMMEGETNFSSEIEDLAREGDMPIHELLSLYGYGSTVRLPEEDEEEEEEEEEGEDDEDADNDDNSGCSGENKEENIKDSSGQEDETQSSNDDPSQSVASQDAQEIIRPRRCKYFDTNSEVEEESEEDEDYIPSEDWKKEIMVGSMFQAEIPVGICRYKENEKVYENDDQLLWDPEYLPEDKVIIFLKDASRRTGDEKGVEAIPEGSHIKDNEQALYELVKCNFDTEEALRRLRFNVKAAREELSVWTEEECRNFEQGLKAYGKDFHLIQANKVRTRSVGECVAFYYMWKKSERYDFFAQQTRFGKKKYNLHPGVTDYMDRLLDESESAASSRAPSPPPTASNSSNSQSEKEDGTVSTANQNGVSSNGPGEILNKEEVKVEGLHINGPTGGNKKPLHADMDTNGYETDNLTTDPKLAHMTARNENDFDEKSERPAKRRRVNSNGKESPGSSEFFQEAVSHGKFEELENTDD
UniProt Q15014, whole entry, looked up: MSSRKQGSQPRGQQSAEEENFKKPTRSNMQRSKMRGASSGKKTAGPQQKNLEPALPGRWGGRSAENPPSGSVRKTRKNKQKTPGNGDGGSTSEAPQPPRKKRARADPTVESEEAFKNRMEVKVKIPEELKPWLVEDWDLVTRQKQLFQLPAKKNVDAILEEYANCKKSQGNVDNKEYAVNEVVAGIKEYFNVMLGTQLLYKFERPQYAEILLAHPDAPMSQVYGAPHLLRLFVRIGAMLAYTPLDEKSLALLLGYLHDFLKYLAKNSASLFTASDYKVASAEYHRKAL
UniProt Q8IY33: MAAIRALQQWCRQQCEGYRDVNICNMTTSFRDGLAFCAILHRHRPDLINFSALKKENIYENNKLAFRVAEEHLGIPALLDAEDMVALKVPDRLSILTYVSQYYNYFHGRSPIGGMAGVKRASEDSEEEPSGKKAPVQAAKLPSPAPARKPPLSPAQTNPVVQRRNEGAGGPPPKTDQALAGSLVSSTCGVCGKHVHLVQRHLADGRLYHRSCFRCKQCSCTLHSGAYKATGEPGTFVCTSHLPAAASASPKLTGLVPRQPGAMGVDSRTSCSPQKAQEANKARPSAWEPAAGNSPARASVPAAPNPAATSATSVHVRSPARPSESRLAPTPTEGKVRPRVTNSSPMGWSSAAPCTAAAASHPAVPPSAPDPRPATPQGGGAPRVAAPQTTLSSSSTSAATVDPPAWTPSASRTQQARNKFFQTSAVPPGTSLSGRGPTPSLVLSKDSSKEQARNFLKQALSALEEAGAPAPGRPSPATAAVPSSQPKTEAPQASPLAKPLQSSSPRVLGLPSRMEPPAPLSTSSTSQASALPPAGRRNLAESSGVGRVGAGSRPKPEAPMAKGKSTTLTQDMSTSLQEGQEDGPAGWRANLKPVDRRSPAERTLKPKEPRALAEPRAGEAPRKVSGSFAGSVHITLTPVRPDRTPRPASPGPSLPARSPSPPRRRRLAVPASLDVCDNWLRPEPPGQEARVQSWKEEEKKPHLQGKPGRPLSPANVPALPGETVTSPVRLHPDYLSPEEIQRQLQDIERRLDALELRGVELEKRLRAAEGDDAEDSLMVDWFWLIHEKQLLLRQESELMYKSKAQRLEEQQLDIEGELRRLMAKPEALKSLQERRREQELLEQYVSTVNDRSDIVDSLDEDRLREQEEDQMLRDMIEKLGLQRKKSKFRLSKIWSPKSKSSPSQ
UniProt Q14149: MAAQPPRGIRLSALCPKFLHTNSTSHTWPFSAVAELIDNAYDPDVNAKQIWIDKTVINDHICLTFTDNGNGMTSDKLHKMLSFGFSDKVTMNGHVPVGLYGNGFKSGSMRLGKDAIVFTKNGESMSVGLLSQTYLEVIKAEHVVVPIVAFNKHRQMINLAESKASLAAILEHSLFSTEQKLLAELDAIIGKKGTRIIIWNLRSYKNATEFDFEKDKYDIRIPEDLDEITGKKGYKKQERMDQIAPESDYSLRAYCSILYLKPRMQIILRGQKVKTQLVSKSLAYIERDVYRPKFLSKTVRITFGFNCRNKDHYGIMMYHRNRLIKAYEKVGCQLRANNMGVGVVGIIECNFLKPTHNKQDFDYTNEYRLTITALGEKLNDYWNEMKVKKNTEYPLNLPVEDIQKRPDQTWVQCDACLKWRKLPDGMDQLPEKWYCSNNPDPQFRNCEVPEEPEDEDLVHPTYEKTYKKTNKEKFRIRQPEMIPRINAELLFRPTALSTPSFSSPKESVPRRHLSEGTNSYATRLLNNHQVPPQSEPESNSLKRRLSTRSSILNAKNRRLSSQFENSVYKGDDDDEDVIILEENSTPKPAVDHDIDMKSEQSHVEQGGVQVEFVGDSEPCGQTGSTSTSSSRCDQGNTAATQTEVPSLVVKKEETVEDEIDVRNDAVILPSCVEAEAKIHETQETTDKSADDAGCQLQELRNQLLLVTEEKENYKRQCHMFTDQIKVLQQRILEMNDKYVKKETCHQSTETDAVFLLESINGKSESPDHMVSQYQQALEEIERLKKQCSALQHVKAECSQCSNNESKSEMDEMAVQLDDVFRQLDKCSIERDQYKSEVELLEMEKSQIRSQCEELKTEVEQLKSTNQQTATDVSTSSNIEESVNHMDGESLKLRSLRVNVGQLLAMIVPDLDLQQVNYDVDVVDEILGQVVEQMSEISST
UniProt Q9H000: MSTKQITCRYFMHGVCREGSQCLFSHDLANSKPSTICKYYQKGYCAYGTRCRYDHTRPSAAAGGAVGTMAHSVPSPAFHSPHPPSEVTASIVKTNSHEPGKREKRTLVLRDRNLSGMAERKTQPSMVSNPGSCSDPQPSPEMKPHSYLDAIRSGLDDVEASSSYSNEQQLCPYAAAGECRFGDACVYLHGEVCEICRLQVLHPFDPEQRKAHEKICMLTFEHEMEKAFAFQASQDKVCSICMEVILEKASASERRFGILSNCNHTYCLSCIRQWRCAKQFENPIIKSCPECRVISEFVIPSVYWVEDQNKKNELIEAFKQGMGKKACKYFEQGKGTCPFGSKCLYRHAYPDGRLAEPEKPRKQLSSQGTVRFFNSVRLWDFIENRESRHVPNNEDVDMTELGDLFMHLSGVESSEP
UniProt O14880: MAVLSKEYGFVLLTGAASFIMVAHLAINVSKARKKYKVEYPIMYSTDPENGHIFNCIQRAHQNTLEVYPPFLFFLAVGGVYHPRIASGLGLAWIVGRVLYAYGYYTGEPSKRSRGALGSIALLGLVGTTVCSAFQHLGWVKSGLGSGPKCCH
UniProt Q99547: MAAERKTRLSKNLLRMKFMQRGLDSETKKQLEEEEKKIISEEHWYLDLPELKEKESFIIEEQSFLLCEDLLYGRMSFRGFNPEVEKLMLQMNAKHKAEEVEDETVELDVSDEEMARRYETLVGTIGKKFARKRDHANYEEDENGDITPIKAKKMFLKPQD
UniProt Q9BVC4, whole entry, looked up: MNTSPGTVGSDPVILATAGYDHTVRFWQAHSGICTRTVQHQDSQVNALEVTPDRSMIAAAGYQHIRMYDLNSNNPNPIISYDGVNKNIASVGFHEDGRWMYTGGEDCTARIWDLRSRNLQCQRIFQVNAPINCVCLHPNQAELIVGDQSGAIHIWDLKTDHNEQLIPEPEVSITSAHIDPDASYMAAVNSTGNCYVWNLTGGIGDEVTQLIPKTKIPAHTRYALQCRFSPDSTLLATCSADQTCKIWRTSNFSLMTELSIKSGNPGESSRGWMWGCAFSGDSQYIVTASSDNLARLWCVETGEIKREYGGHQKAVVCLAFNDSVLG

How the values were obtained:
Test in all cases: log2 fold change, soluble protein after heating vs DMSO (PISA); higher = thermal stabilisation; K562 lysate, 10 uM; active = over 0.2 and 3.5 SD of the protein, either way, in both replicates (recomputed)
[1] = compound: C=CC(=O)N1CCC[C@@H](n2nc(-c3ccc(Oc4ccccc4)cc3)c3c(N)ncnc32)C1 [ibrutinib]
Method in brief: (§1)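 Dounce homogenisation of K562 pellets in PBS pH 7.4 with 1 mM MgCl2 produced a crude extract, used at 1 mg/mL protein. Exposure to 10 μM compound lasted 30 min, and aliquots were then heated for 3 min across 48°C-58°C, pooled and brought to 0.5% NP-40 at 4°C. The supernatant after 21,000xg for 90 min was quantified by TMTpro 16plex LC-MS/MS with channel sums equalised. Duplicate values are given as log-two fold change in thermal stability relative to solvent controls.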

[2] = compound: CC(=O)c1cnc2ccc(-c3cc(Cl)c(O)c(Cl)c3)nc2c1N[C@H]1CC[C@H](CN(C)C)CC1
Method in brief: as §1

[3] = compound: CC(C)(C)Cn1c(N)nc2ccc(-c3[nH]c(C(C)(C)C)nc3-c3ccc(F)cc3)nc21 [ralimetinib]
Method in brief: as §1

[4] = compound: CC(C)(O)CC(=O)NCCn1ccc2ncnc(Nc3ccc(Oc4cccc(C(F)(F)F)c4)c(Cl)c3)c21
Method in brief: as §1

[5] = compound: CC(C)C1=C2N=C(C=C(N2N=C1)NCC3=CC=CC=C3)NCCCCCCN
Method in brief: as §1

[6] = compound: CC1=C(C(CC(=O)N1)C2=CC=C(C=C2)C(F)(F)F)C(=O)NC3=C(C=C4C(=C3)C=NN4)F
Method in brief: as §1

[7] = compound: CC1=C(C2=C(C=C1)C(=O)C3=CC=CC=C3N2CCCN)C
Method in brief: as §1

[8] = compound: CC1=C(C=C(C=C1)NC(=O)C2=CC(=CC=C2)C(C)(C)C#N)NC3=CC4=C(C=C3)N=CN(C4=O)C
Method in brief: as §1

[9] = compound: CC1=C(C=C(C=C1)NC(=O)C2=CC(=CC=C2)N(C)C)NC(=O)C3=CC=C(C=C3)O
Method in brief: as §1

[10] = compound: CC1=CC=C(C=C1)SC2=C3C=C(SC3=CN=C2)C(=O)N
Method in brief: as §1

[11] = compound: CCCS(=O)(=O)Nc1ccc(F)c(C(=O)c2c[nH]c3ncc(-c4ccc(Cl)cc4)cc23)c1F [vemurafenib]
Method in brief: as §1

[12] = compound: CCCS(=O)(=O)Nc1ccc(F)c(C(=O)c2c[nH]c3ncc(Cl)cc23)c1F
Method in brief: as §1

[13] = compound: CCN(CCCOc1ccc2c(Nc3cc(CC(=O)Nc4cccc(F)c4)[nH]n3)ncnc2c1)CCOP(=O)(O)O [barasertib]
Method in brief: as §1

[14] = compound: CC[C@@H]1C(=O)N(C)c2cnc(Nc3ccc(C(=O)NC4CCN(C)CC4)cc3OC)nc2N1C1CCCC1
Method in brief: as §1

[15] = compound: CC[C@@H]1C(=O)N(C)c2cnc(Nc3ccc(C(=O)N[C@H]4CC[C@H](N5CCN(CC6CC6)CC5)CC4)cc3OC)nc2N1C(C)C [volasertib]
Method in brief: as §1

[16] = compound: CCn1c(C(=O)N(C2CC2)C2CC2)cc2c3c(ncn3C)c(Nc3cc(C)n(C)n3)nc21
Method in brief: as §1

[17] = compound: CCn1cc(-c2ccnc3[nH]c(-c4cccc(CN(C)C)c4)cc23)c(-c2ccc(NC(=O)N(C)C)cc2)n1
Method in brief: as §1

[18] = compound: CN1CCC(CNc2ccc3ncc(-c4cccc(OC(F)(F)F)c4)n3n2)CC1
Method in brief: as §1

[19] = compound: CN1CCN(CCOc2cc(OC3CCOCC3)c3c(Nc4c(Cl)ccc5c4OCO5)ncnc3c2)CC1 [saracatinib]
Method in brief: as §1

[20] = compound: CN1CCN(c2nc(C3=C(c4c[nH]c5ccccc45)C(=O)NC3=O)c3ccccc3n2)CC1 [sotrastaurin]
Method in brief: as §1

Target | log2 fold change [1] | log2 fold change [2] | log2 fold change [3] | log2 fold change [4] | log2 fold change [5] | log2 fold change [6] | log2 fold change [7] | log2 fold change [8] | log2 fold change [9] | log2 fold change [10] | log2 fold change [11] | log2 fold change [12] | log2 fold change [13] | log2 fold change [14] | log2 fold change [15] | log2 fold change [16] | log2 fold change [17] | log2 fold change [18] | log2 fold change [19] | log2 fold change [20]
MRPL12 (UniProt P52815) | inactive: 0.082 | inactive: -0.05 | inactive: 0.006 | inactive: -0.013 | inactive: -0.029 | inactive: -0.042 | inactive: 0 | inactive: 0.026 | inactive: 0.012 | inactive: 0.076 | inactive: 0.01 | inactive: -0.026 | inactive: 0.181 | inactive: 0.036 | inactive: 0.103 | inactive: -0.019 | active: -0.412 | inactive: -0.032 | inactive: 0.004 | inactive: 0.015
MORC2 (UniProt Q9Y6X9) | inactive: 0.065 | inactive: 0.02 | inactive: 0.054 | inactive: -0.035 | inactive: -0.039 | inactive: -0.001 | inactive: -0.026 | inactive: -0.037 | inactive: 0.072 | inactive: 0.004 | inactive: 0.049 | inactive: 0.01 | inactive: 0.054 | inactive: 0.022 | inactive: 0.002 | inactive: -0.006 | inactive: -0.041 | inactive: 0.008 | inactive: 0.042 | inactive: 0.037
MPST isoform 2 (UniProt P25325) | inactive: 0.023 | inactive: -0.014 | inactive: -0.014 | inactive: -0.01 | inactive: 0.018 | inactive: -0.019 | inactive: -0.007 | inactive: 0.001 | inactive: 0 | inactive: 0.029 | inactive: -0.027 | inactive: 0 | inactive: 0.05 | inactive: 0.026 | inactive: -0.006 | inactive: -0.044 | inactive: -0.004 | inactive: 0.03 | inactive: -0.014 | inactive: -0.001
MON1B (UniProt Q7L1V2) | inactive: 0.018 | inactive: 0.013 | inactive: 0.045 | inactive: -0.029 | inactive: -0.024 | inactive: 0.066 | inactive: -0.016 | inactive: -0.056 | inactive: -0.012 | inactive: -0.003 | inactive: -0.019 | inactive: 0.029 | inactive: -0.007 | inactive: 0.018 | inactive: -0.013 | inactive: -0.01 | inactive: -0.025 | inactive: 0.056 | inactive: 0.019 | inactive: 0.04
MLEC (UniProt Q14165) | inactive: 0.026 | inactive: -0.009 | inactive: 0.007 | inactive: -0.001 | inactive: 0.005 | inactive: -0.01 | inactive: 0.015 | inactive: -0.009 | inactive: -0.052 | inactive: 0.016 | inactive: -0.008 | inactive: 0.007 | inactive: 0.013 | inactive: -0.006 | inactive: 0.027 | inactive: -0.023 | inactive: 0.073 | inactive: -0.022 | inactive: -0.018 | inactive: -0.032
MRPL15 (UniProt Q9P015) | inactive: 0.003 | inactive: -0.078 | inactive: -0.024 | inactive: -0.056 | inactive: -0.01 | inactive: -0.007 | inactive: -0.133 | inactive: 0.032 | inactive: 0.009 | inactive: -0.023 | inactive: 0.004 | inactive: 0.025 | inactive: -0.04 | inactive: 0.024 | inactive: -0.018 | inactive: -0.062 | active: -0.509 | inactive: 0.174 | inactive: -0.07 | inactive: 0.023
MOCS1 isoform 8 (UniProt Q9NZB8) | inactive: 0.186 | inactive: 0.08 | inactive: -0.066 | inactive: 0.035 | inactive: 0.049 | inactive: -0.005 | inactive: -0.003 | inactive: 0.069 | inactive: -0.026 | inactive: -0.002 | inactive: 0.063 | inactive: 0.022 | inactive: 0.166 | inactive: -0.043 | inactive: -0.004 | inactive: -0.015 | inactive: -0.063 | inactive: -0.013 | inactive: 0.006 | inactive: -0.018
MIER1 isoform 12 (UniProt Q8N108) | inactive: -0.003 | inactive: -0.016 | inactive: 0.001 | inactive: -0.027 | inactive: -0.028 | inactive: -0.006 | inactive: -0.024 | inactive: 0.005 | inactive: 0.028 | inactive: -0.011 | inactive: 0.057 | inactive: 0.013 | inactive: -0.032 | inactive: 0.027 | inactive: 0.004 | inactive: -0.027 | inactive: -0.045 | inactive: 0.019 | inactive: -0.003 | inactive: 0.042
MORF4L2 (UniProt Q15014) | inactive: -0.022 | inactive: 0.002 | inactive: 0 | inactive: -0.032 | inactive: 0.004 | inactive: -0.005 | inactive: -0.026 | inactive: -0.031 | inactive: 0.031 | inactive: -0.003 | inactive: -0.021 | inactive: 0.018 | inactive: -0.043 | inactive: 0.067 | inactive: 0.001 | inactive: 0.015 | inactive: -0.012 | inactive: 0.045 | inactive: 0.004 | inactive: -0.007
MIB1 (UniProt Q86YT6) | inactive: 0.026 | inactive: -0.112 | inactive: 0.019 | inactive: -0.068 | inactive: -0.042 | inactive: -0.065 | inactive: 0.073 | inactive: -0.004 | inactive: -0.022 | inactive: -0.055 | inactive: -0.025 | inactive: -0.055 | inactive: 0.007 | inactive: -0.056 | inactive: -0.112 | inactive: -0.065 | inactive: -0.006 | inactive: 0.022 | inactive: -0.004 | inactive: -0.04
MICALL2 (UniProt Q8IY33) | inactive: 0.023 | inactive: 0.007 | inactive: -0.022 | inactive: -0.018 | inactive: -0.051 | inactive: -0.019 | inactive: -0.004 | inactive: 0.012 | inactive: 0.005 | inactive: -0.008 | inactive: 0.007 | inactive: -0.007 | inactive: -0.001 | inactive: 0.078 | inactive: 0.009 | inactive: -0.008 | inactive: 0.009 | inactive: -0.039 | inactive: -0.015 | inactive: 0.014
MORC3 (UniProt Q14149) | inactive: 0.004 | inactive: -0.023 | inactive: 0.021 | inactive: 0.013 | inactive: -0.007 | inactive: 0.007 | inactive: -0.032 | inactive: -0.021 | inactive: 0.021 | inactive: -0.027 | inactive: 0.025 | inactive: 0.01 | inactive: 0.019 | inactive: -0.03 | inactive: -0.077 | inactive: 0.007 | inactive: -0.007 | inactive: -0.055 | inactive: 0.004 | inactive: 0.006
MKRN2 (UniProt Q9H000) | inactive: -0.005 | inactive: 0.03 | inactive: 0.024 | inactive: -0.032 | inactive: 0.041 | inactive: 0.013 | inactive: -0.025 | inactive: 0.022 | inactive: -0.021 | inactive: 0.027 | inactive: 0.003 | inactive: -0.008 | inactive: 0.022 | inactive: -0.041 | inactive: -0.021 | inactive: 0.038 | inactive: 0.064 | inactive: -0.079 | inactive: 0.034 | inactive: -0.042
MGST3 (UniProt O14880) | inactive: 0.06 | inactive: -0.004 | inactive: 0.041 | inactive: -0.046 | inactive: -0.009 | inactive: -0.004 | inactive: -0.03 | inactive: 0.042 | inactive: 0.006 | inactive: -0.025 | inactive: 0.012 | inactive: 0.01 | inactive: -0.056 | inactive: 0.078 | inactive: 0.076 | inactive: 0.006 | active: 0.286 | inactive: -0.082 | inactive: -0.017 | inactive: -0.015
MPHOSPH6 (UniProt Q99547) | inactive: 0.002 | inactive: -0.014 | inactive: 0.001 | inactive: 0 | inactive: -0.014 | inactive: -0.006 | inactive: 0.025 | inactive: 0.037 | inactive: 0.01 | inactive: 0.017 | inactive: -0.086 | inactive: 0.003 | inactive: 0.024 | inactive: 0.011 | inactive: 0.016 | inactive: -0.04 | inactive: 0.003 | inactive: -0.039 | inactive: 0.008 | inactive: 0.033
MLST8 (UniProt Q9BVC4) | inactive: 0 | inactive: 0.011 | inactive: -0.038 | inactive: 0.021 | inactive: 0.063 | inactive: -0.042 | inactive: -0.021 | inactive: -0.003 | inactive: 0.044 | inactive: 0.023 | inactive: 0.025 | inactive: 0.029 | inactive: 0.074 | inactive: 0.026 | inactive: -0.009 | inactive: 0.023 | inactive: -0.03 | inactive: 0.012 | inactive: 0.075 | inactive: -0.045

Two neighbouring records out of the list so far:
Target | log2 fold change [1] | log2 fold change [2] | log2 fold change [3] | log2 fold change [4] | log2 fold change [5] | log2 fold change [6] | log2 fold change [7] | log2 fold change [8] | log2 fold change [9] | log2 fold change [10] | log2 fold change [11] | log2 fold change [12] | log2 fold change [13] | log2 fold change [14] | log2 fold change [15] | log2 fold change [16] | log2 fold change [17] | log2 fold change [18] | log2 fold change [19] | log2 fold change [20]
MPST isoform 2 (UniProt P25325) | inactive: 0.023 | inactive: -0.014 | inactive: -0.014 | inactive: -0.01 | inactive: 0.018 | inactive: -0.019 | inactive: -0.007 | inactive: 0.001 | inactive: 0 | inactive: 0.029 | inactive: -0.027 | inactive: 0 | inactive: 0.05 | inactive: 0.026 | inactive: -0.006 | inactive: -0.044 | inactive: -0.004 | inactive: 0.03 | inactive: -0.014 | inactive: -0.001
MON1B (UniProt Q7L1V2) | inactive: 0.018 | inactive: 0.013 | inactive: 0.045 | inactive: -0.029 | inactive: -0.024 | inactive: 0.066 | inactive: -0.016 | inactive: -0.056 | inactive: -0.012 | inactive: -0.003 | inactive: -0.019 | inactive: 0.029 | inactive: -0.007 | inactive: 0.018 | inactive: -0.013 | inactive: -0.01 | inactive: -0.025 | inactive: 0.056 | inactive: 0.019 | inactive: 0.04
